Source: patent US20090166224A1
These are yes or no findings as the source states them, for the method shown. For some of these results: In cells and extracts the contact can be indirect. Some binding calls cover weakened binding; strength is not graded here.

By UniProt entry, the sequences of proteins in these tests, tags left out. Where a name states a change or a piece, a line headed by the entry shows the natural chain unless it says otherwise. Chains listed by the source or under a name are the forms on record and can include a tag or linker. Residues count along the entry.
IG ALPHA-1 CHAIN C REGION (P01876, form named): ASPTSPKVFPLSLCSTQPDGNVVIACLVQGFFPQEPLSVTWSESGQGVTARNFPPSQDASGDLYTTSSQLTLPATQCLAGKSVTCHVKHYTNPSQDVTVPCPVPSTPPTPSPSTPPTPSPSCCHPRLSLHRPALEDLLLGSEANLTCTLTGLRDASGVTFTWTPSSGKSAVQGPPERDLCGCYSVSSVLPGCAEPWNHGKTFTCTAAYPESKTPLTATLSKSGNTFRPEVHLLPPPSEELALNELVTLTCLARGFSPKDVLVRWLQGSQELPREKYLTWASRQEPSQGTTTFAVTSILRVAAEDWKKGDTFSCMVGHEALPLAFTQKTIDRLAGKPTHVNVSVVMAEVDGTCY
UniProt P02768, residues 25-609: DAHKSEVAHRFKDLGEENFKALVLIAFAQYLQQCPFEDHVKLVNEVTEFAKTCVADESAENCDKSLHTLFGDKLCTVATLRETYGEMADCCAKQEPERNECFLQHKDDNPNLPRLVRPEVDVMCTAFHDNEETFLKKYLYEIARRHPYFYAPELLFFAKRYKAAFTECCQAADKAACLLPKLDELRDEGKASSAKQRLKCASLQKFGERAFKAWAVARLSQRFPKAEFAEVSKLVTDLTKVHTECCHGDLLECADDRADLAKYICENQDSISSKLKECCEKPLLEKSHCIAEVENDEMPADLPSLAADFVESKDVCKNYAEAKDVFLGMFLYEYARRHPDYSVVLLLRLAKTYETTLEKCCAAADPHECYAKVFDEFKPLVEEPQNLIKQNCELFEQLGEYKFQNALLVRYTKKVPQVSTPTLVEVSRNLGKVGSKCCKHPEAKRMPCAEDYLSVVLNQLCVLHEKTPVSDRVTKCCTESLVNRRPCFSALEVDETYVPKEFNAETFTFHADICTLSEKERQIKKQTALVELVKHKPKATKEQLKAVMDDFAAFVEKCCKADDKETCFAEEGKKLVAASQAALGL
UniProt P01009, residues 25-418: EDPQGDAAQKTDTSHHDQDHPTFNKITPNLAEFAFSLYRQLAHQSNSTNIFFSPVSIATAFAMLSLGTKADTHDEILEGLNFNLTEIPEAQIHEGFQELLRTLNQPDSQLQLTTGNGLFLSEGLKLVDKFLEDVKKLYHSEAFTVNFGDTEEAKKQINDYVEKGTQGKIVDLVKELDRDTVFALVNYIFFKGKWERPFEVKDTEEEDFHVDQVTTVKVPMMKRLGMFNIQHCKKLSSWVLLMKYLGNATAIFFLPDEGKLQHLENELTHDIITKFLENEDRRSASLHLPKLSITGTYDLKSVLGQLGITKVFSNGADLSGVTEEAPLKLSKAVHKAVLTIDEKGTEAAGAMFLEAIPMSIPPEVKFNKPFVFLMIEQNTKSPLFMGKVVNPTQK
UniProt P02649, residues 19-317: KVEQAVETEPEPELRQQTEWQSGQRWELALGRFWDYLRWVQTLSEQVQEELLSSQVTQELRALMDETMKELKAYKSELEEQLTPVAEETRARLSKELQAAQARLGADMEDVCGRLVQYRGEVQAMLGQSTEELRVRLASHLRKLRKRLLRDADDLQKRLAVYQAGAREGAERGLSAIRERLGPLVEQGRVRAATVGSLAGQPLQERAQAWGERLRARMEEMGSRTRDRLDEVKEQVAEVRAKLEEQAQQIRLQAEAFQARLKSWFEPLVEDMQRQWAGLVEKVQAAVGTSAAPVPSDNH

Legend:
[1] = molecular target: IG ALPHA-1 CHAIN C REGION (human) (UniProt P01876); test: human serum on M-LAC column, sequential displacer fractions, LC-MS/MS
[2] = molecular target: T1, ALPHA-2-MACROGLOBULIN (human) (UniProt P01023); test: as above
T1 sequence (looked up): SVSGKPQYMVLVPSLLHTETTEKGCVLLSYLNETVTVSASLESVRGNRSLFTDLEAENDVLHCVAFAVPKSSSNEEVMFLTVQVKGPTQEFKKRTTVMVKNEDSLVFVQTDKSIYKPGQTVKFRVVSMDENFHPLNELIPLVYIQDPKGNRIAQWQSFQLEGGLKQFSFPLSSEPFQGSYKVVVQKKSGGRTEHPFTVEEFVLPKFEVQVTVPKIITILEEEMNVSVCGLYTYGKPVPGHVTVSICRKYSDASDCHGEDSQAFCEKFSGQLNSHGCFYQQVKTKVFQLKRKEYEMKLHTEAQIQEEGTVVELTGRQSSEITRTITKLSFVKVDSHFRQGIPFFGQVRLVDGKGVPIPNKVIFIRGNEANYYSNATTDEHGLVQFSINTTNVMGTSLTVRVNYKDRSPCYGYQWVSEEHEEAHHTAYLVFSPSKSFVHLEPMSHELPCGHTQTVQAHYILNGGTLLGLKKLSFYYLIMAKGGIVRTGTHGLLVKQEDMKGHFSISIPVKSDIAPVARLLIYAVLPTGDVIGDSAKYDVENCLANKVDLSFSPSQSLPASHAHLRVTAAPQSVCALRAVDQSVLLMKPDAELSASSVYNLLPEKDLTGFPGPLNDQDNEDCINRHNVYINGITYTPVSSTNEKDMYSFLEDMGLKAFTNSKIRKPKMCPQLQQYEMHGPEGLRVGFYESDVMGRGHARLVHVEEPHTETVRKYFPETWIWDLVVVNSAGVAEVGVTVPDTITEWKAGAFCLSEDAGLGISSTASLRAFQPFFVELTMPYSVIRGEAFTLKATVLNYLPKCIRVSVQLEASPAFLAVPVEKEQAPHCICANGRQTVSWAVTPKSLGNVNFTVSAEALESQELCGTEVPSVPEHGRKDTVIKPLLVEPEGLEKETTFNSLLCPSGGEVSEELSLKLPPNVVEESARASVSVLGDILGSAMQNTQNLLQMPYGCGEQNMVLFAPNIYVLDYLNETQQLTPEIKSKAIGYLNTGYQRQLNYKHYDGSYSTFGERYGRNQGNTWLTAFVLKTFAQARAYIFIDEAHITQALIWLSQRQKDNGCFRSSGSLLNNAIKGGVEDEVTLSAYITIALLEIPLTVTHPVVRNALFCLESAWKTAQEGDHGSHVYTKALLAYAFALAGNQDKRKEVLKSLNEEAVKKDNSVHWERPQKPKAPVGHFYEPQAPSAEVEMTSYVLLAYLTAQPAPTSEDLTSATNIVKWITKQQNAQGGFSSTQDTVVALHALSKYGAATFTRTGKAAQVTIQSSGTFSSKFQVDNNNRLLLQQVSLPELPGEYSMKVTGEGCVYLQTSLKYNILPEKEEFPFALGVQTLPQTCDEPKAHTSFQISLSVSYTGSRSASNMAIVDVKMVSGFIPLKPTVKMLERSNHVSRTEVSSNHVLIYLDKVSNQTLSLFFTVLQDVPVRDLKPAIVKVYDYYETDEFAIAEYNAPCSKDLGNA

[3] = molecular target: SERUM ALBUMIN (human) (UniProt P02768); test: as above
[4] = molecular target: Alpha-1-antitrypsin (human) (UniProt P01009); test: ELISA on lectin-coated plate, bound glycoprotein detected with IgY and HRP anti-IgY
[5] = molecular target: T1, ALPHA-2-MACROGLOBULIN (human); test: as above
[6] = molecular target: APOLIPOPROTEIN E (human) (UniProt P02649); test: human serum on M-LAC column, sequential displacer fractions, LC-MS/MS

Measured: binding

B1: wheat germ agglutinin (WGA), agarose-bound (protein, UniProt P10968 27-197, looked up)
chain: QRCGEQGSNMECPNNLCCSQYGYCGMGGDYCGKGCQNGACWTSKRCGSQAGGATCTNNQCCSQYGYCGFGAEYCGAGCQGGPCRADIKCGSQAGGKLCPNNLCCSQWGFCGLGSEFCGGGCQSGACSTDKPCGKDAGGRVCTNNYCCSKWGSCGIGPGYCGAGCQSGGCDG
modifications: immobilized on agarose
binds: [1] | [2] | [3] | [4] | [5]

B2: Jacalin lectin, agarose-bound (protein)
chain 1: GKAFDDGAFTGIREINLSYNKETAIGDFQVVYDLNGSPYVGQNHKSFITGFTPVKISLDFPSEYIMEVSGYTGNVSGYVVVRSLTFKTNKKTYGPYGVTSGTPFNLPIENGLIVGFKGSIGYWLDYFSMYLSL
chain 2: NEQSGKSQTVIVGSWGAKVS
modifications: immobilized on agarose
binds: [3] | [6]
